{"sequences": {"note": "Protein sequences, listed by entry. Tags and fused reporters are not part of them. Lines headed by an entry give the natural chain unless they say otherwise; changes in a name come on top.", "UniProt Q01638": "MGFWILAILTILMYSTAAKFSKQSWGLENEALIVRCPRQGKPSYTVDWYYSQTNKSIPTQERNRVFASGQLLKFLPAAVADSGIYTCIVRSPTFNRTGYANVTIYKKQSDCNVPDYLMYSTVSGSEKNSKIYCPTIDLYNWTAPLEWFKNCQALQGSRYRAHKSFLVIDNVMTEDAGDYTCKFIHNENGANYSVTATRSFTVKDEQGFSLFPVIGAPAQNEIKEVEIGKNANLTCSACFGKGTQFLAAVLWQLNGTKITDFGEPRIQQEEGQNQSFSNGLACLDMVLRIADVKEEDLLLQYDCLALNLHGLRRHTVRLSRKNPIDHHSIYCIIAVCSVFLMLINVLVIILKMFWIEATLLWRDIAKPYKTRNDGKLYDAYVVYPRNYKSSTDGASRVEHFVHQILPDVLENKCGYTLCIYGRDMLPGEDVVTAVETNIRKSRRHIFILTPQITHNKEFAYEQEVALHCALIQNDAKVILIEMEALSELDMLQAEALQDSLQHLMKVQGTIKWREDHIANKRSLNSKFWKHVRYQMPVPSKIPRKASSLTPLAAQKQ"}, "source": "PubChem BioAssay AID1259354", "about": "(Paczesny and Yang Labs, IUPUI and University of Michigan, 2018)", "note": "“And” between values parts separate entries of the source, which are not always exact repeats. Identical values can stand only once. Hit rate of the full screen: of about 78,000 compounds, about 1,800 (2.3%) were called active. The shares of active, inactive and inconclusive entries below differ from those in the screen. Rule as the data show it: active = inhibition above about 30%; inconclusive = mostly about 10% to 28%; inactive = weaker than that.", "data": [{"molecular_target": "Interleukin-1 receptor-like 1 (Homo sapiens) (UniProt Q01638)", "assay": "blocks human ST2 binding to IL-33, primary screen, biochemical, AlphaLISA (AID 1259354)", "settings": "AlphaLISA ST2-Fc/biotin-IL-33 interaction, 1 h; at 17 µM, active compounds read high", "values": [{"compound": "COc1cccc(OC)c1C(=O)Nc1nc2ccc3sc(C)nc3c2s1", "inhibition": "inconclusive: 18%"}, {"compound": "COc1ccccc1N1CCN(CC(O)COCc2ccc(Cl)cc2)CC1", "note": "(stereo not given)", "inhibition": "inconclusive: 14%"}, {"compound": "Cc1ccc(C2C(=O)c3ccccc3C2=O)cc1", "inhibition": "inconclusive: 21%"}, {"compound": "COc1ccc(C(C#N)N2CCN(C(C#N)c3ccc(OC)c(OC)c3)CC2)cc1OC", "note": "(stereo not given)", "inhibition": "inconclusive: 19%"}, {"compound": "CC(C)C1(O)C=C2C(=O)CC3C(C)(C(=O)O)CCCC3(C)C2CC1", "note": "(stereo not given)", "inhibition": "active: 30%"}, {"compound": "COc1ccccc1CCn1cnc(-c2ccccc2)c1C1CCOCC1", "inhibition": "inconclusive: 12%"}, {"compound": "CCOc1ccc(C2CC(c3ccccc3OC)n3nc(N)nc3N2)cc1", "note": "(stereo not given)", "inhibition": "inconclusive: 20%"}, {"compound": "NC(=O)C(=O)NCc1cccnc1Oc1ccc(F)cc1F", "inhibition": "inconclusive: 20%"}, {"compound": "COCCC(=O)Nc1ccc2c(c1)CN(C(=O)c1ccc(CSC)o1)CC2", "inhibition": "inconclusive: 13%"}, {"compound": "COc1ccc(-c2noc([C@@H]3C[C@@H](O)CN3Cc3ccc(C)cc3)n2)cc1", "inhibition": "inconclusive: 13%"}, {"compound": "COc1cc(OC)cc(-c2nnc(NC(=O)c3ccc(S(=O)(=O)N4CCCC4)cc3)o2)c1", "inhibition": "inconclusive: 19%"}, {"compound": "COc1cc(/C=C/C(=O)OCC[N+](C)(C)C)cc(OC)c1O", "inhibition": "inconclusive: 13%"}, {"compound": "CCOC(=O)c1[nH]c2ccccc2c1NC(=O)C(C)(C)Oc1ccc(Cl)cc1", "inhibition": "inactive"}, {"compound": "CC(=O)c1cccc(NC(=O)c2cc(-c3ccc4c(c3)OCO4)on2)c1", "inhibition": "inconclusive: 22%"}, {"compound": "O=C(CN1CCc2onc(-c3ccc(F)c(F)c3)c2C1)NCc1ccco1", "inhibition": "inconclusive: 13%"}, {"compound": "CSc1nc(-c2ccc(F)cc2)nc2c1c(=O)n(C)c(=O)n2C", "inhibition": "inconclusive: 28%"}, {"compound": "O=C(Nc1ccccc1)c1ccc2c3c(onc13)-c1ccccc1C2=O", "inhibition": "inconclusive: 10%"}, {"compound": "O=[N+]([O-])c1cccc(-c2noc([C@@H]3Cc4nc[nH]c4CN3Cc3cccs3)n2)c1", "inhibition": "inconclusive: 17%"}, {"compound": "CCOC(=O)c1[nH]c(=O)[nH]c1CN1CCC2(CCN(C)CC2)C1", "inhibition": "inactive"}, {"compound": "Cc1nc(-c2cccc(-c3n[nH]c(CCc4ccccc4)n3)c2)no1", "inhibition": "inconclusive: 14%"}, {"compound": "CCOC(=O)c1oc2ccccc2c1NC(=O)C1CC1", "inhibition": "inactive"}, {"compound": "c1csc(CNc2ncnc3nc[nH]c23)c1", "inhibition": "inconclusive: 18%"}, {"compound": "CCOC(=O)C1(C/C=C/c2ccccc2)CCCN(C(=O)CCC2=NNC(=O)CC2)C1", "note": "(stereo not given)", "inhibition": "inconclusive: 11%"}, {"compound": "Cc1ccc(S(=O)(=O)ON=C2C=CC(=O)C=C2)cc1", "inhibition": "active: 47%"}, {"compound": "CC(C)Cn1cncc1CNC(=O)c1cc(=O)c2ccccc2[nH]1", "inhibition": "inconclusive: 14%"}, {"compound": "CC(C)c1ccc(CNc2ccc3c(c2)ncn3C)cc1", "inhibition": "inconclusive: 18% and inconclusive: 15%"}, {"compound": "CCOC(=O)c1sc(=NC(=O)c2ccc(C(=O)OC)cc2)n(C)c1C", "inhibition": "inconclusive: 17%"}, {"compound": "COC(=O)C(NC1CCSCC1)c1cccc(C)c1", "note": "(stereo not given)", "inhibition": "inconclusive: 18%"}, {"compound": "COc1ccc(Cn2c(CNC(=O)C3CC3)nc3cccnc32)cc1", "inhibition": "inconclusive: 18%"}, {"compound": "CC(C)c1ccc(NC(=O)c2ccc3c(c2)NC(=O)C2CCCCN32)cc1", "note": "(stereo not given)", "inhibition": "active: 99%"}, {"compound": "COc1ccc(N2CSC3=C(C#N)C(c4ccccc4F)CC(=O)N3C2)cc1", "note": "(stereo not given)", "inhibition": "inconclusive: 19%"}, {"compound": "COc1cc(OC)cc(C(=O)OCCN(C2=NS(=O)(=O)c3ccccc32)c2ccccc2)c1", "inhibition": "inconclusive: 16%"}, {"compound": "CCn1ncc(C(=O)NCCc2nc(-c3ccc(Cl)cc3)no2)c1C", "inhibition": "inconclusive: 20%"}, {"compound": "COCCNc1nc2c(c(=O)n(C)c(=O)n2C)n1Cc1ccc(F)cc1", "inhibition": "inactive"}, {"compound": "COc1ccc(CC(=O)NC2=NC(=O)C(C)S2)cc1", "note": "(stereo not given)", "inhibition": "inconclusive: 17%"}, {"compound": "Cc1nccn1-c1ccc(NC(=O)C2CCCN(CCCc3ccccc3)C2)cc1", "note": "(stereo not given)", "inhibition": "inactive"}, {"compound": "CCC1COC(C)(CCC(C)C)N1C(=O)c1cc2c(=O)n3cccc(C)c3nc2s1", "note": "(stereo not given)", "inhibition": "inconclusive: 12%"}, {"compound": "CC1=CC(=NC(=NS(=O)(=O)c2ccc(C)cc2)c2ccccc2)C(C)=CC1=O", "inhibition": "active: 44%"}, {"compound": "O=C(Cn1cncn1)c1ccc(F)c(F)c1", "inhibition": "inconclusive: 15%"}, {"compound": "COc1ccc2nc([C@H]3CCN(Cc4ccc(C(=O)O)cc4)C3)[nH]c2c1", "inhibition": "inconclusive: 11%"}, {"compound": "CCC(C)(O)c1nnn(-c2nonc2N)c1C(C)(O)CC", "note": "(stereo not given)", "inhibition": "inactive"}, {"compound": "Cn1c(SCC(=O)N2CCCCC2)nc2c([nH]c3ccccc32)c1=O", "inhibition": "inconclusive: 15%"}, {"compound": "COc1cccc2cc(-c3nc(-c4ccccc4)cs3)c(=O)oc12", "inhibition": "inconclusive: 14%"}, {"compound": "COc1ccc(C2CC(=O)Nc3c2cc(Br)c2ccccc32)c(OC)c1", "note": "(stereo not given)", "inhibition": "inconclusive: 10%"}, {"compound": "COc1ccccc1CCCNC(=O)c1c[nH]c2ccccc12", "inhibition": "inconclusive: 10%"}, {"compound": "N#Cc1nc(COc2ccc(Cl)cc2)oc1N1CCC(C(N)=O)CC1", "inhibition": "inconclusive: 12%"}, {"compound": "Cc1cccc(NC(=O)CCCC(=O)O)c1C", "inhibition": "inconclusive: 12%"}, {"compound": "O=C(CSc1nc2c(c(=O)n1-c1ccc(F)cc1)SCC2)Nc1ccccc1", "inhibition": "inconclusive: 16%"}, {"compound": "O=C(CCc1ccccc1)NCc1cccc(CNC(=O)CCc2ccccc2)c1", "inhibition": "inconclusive: 14%"}, {"compound": "Cc1ccc(C(=O)NCCN=Cc2ccc(Cl)cc2Cl)cc1", "inhibition": "inconclusive: 12%"}, {"compound": "Cc1cc(N(C)Cc2ncc[nH]2)nc(-c2ccccc2)n1", "inhibition": "inconclusive: 16%"}, {"compound": "COc1ccc(OC)c(N=Cc2c(C)[nH]n(-c3ccccc3)c2=O)c1", "inhibition": "inconclusive: 28%"}, {"compound": "CSc1cccc(CNC(=O)COc2ccc(N3CCN(c4ccccn4)CC3)nn2)c1", "inhibition": "inactive"}, {"compound": "Cc1ccc(Cl)c(C(=O)NC2CCCN(C(=O)C3CC3)C2)c1", "note": "(stereo not given)", "inhibition": "inconclusive: 11%"}, {"compound": "O=c1[nH]c(Nc2ccc(Br)cc2)nnc1Cc1ccccc1Cl", "inhibition": "inactive"}, {"compound": "Cn1c(Sc2ccc([N+](=O)[O-])cc2C(F)(F)F)nnc1-c1ccccc1", "inhibition": "inconclusive: 13%"}, {"compound": "Cc1cc(-c2ccc3c(c2)CCO3)cnc1N", "inhibition": "inconclusive: 11%"}, {"compound": "O=C1OC(c2ccccc2Cl)=N/C1=C\\C=C\\c1ccccc1", "inhibition": "active: 34%"}, {"compound": "Nc1ccc(Nc2ccccc2)c(Cl)c1", "inhibition": "active: 44%"}, {"compound": "COc1ccccc1OCCOc1ccc([N+](=O)[O-])cc1/C=C1\\C(=O)NN(c2ccccc2)C1=O", "inhibition": "inconclusive: 21%"}]}]}
